Data on 1 molecule can be found in patent publication US20050054007A1.

These are yes or no findings as the source states them, for the method shown. A result given as binding can be weak or reduced; the word gives no strength.

The test concerns the target bovine histone H1 (Boehringer Mannheim) (bovine). Put plainly: ELISA on 100 ng coated bovine histone; confirmed by a competition ELISA with histones in solution. For orientation: ELISA stands for enzyme-linked immunosorbent assay.

B1: NHS76 IgG (antibody, V domains shown)
VH: QVQLQESGPGLVKPSETLSLTCAVSGYSISSGYYWGWIRQPPGKGLEWIGSIYHSGSTYYNPSLKSRVTISVDTSKNQFSLKLSSVTAADTAVYYCARGKWSKFDYWGQGTLVTVSS
VL: SSELTQDPAVSVALGQTVRITCQGDSLRSYYASWYQQKPGQAPVLVIYGKNNRPSGIPDRFSGSSSGNTASLTITGAQAEDEADYYCNSRDSSGNHVVFGGGTKLTVL
As for B1, the binding entry is on record as “binds”.
